According to paper PMC6203763:
These are yes or no findings as the source states them, for the method shown. In cells and extracts the contact can be indirect. A result given as binding can be weak or reduced; the word gives no strength.

Molecular target: SIRT3, co-transfected with SHMT2
Assay: co-IP; SIRT3 and SHMT2 plasmids co-transfected 24 h, then cells treated with the indicated glucose concentrations (glucose starvation); immunoprecipitation and blot

- binding: binds
B1: SHMT2, co-transfected with SIRT3 (protein, UniProt P34897 30-504)
chain: NAAQTQTGEANRGWTGQESLSDSDPEMWELLQREKDRQCRGLELIASENFCSRAALEALGSCLNNKYSEGYPGKRYYGGAEVVDEIELLCQRRALEAFDLDPAQWGVNVQPYSGSPANLAVYTALLQPHDRIMGLDLPDGGHLTHGYMSDVKRISATSIFFESMPYKLNPKTGLIDYNQLALTARLFRPRLIIAGTSAYARLIDYARMREVCDEVKAHLLADMAHISGLVAAKVIPSPFKHADIVTTTTHKTLRGARSGLIFYRKGVKAVDPKTGREIPYTFEDRINFAVFPSLQGGPHNHAIAAVAVALKQACTPMFREYSLQVLKNARAMADALLERGYSLVSGGTDNHLVLVDLRPKGLDGARAERVLELVSITANKNTCPGDRSAITPGGLRLGAPALTSRQFREDDFRRVVDFIDEGVNIGLEVKSKTAKLQDFKSFLLKDSETSQRLANLRQRVEQFARAFPMPGFDEH
